Measurements: patent US5691196
For some assays here: No signal at the amounts used counts as a negative. For some assays here: Weaker means in comparison with the reference protein, sequence or condition of that experiment. For some assays here: Where cells or extracts were used, other partners may take part. For some assays here: Tags and fusion partners may be left off the protein sequences shown. For some assays here: The exact form of at least one protein or probe is not confirmed.

Chains of the proteins cited; added tags and fusions are not shown. Lines headed by an entry give the natural chain unless they say otherwise; changes in a name come on top.
UniProt P19793: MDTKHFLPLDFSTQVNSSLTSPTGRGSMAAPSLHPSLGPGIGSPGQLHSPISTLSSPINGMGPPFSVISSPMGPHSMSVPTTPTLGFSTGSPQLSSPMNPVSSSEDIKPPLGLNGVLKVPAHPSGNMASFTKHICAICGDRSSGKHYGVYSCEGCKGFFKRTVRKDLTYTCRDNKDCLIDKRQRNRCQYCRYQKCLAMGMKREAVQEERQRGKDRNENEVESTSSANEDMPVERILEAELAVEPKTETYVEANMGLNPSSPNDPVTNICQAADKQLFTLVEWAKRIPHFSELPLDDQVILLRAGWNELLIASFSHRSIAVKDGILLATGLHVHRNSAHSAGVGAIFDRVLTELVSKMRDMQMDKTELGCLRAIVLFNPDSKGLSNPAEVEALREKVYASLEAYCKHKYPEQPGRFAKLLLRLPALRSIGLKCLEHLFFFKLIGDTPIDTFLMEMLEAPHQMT

Assays:
RXRalpha [1] = target: RXRalpha (UniProt P19793); test: activity in cells; conditions: protein in cells, protein details: pMT2-RXRalpha, CV-1 cells
[2] = test system: RXRalpha/ARP-1 deltaA1 heterodimer ARP-1 amino-terminal domain deleted; test: competition with a labelled probe; conditions: protein in an extract; protein details: yeast RXRalpha mixed with CMT cell ARPdeltaA1; variant of apoAI site A (oligo A)
[3] = test system: RXRalpha/RARalpha heterodimer; test: competition with a labelled probe; conditions: protein in an extract; protein details: yeast RXRalpha mixed with CMT cell RARalpha; variant of apoAI site A (oligo A)
[4] = test system: ARP-1 deltaA1 amino-terminal domain deleted; test: competition with a labelled probe; conditions: protein in a lysate after overexpression; variant of apoAI site A (oligo A)
RXRalpha [5] = target: RXRalpha (UniProt P19793); test: competition with a labelled probe; conditions: 100-fold excess does not compete; 9-cis-RA; protein in an extract; protein details: ubiquitin-fusion expression in yeast (YEpRXRalpha); variant of apoAI site A (oligo A)
[6] = test system: RXRalpha/ARP-1 deltaA1 heterodimer ARP-1 amino-terminal domain deleted; test: EMSA; conditions: at least 50-fold excess oligo A needed to compete; protein in an extract; protein details: yeast RXRalpha mixed with CMT cell ARPdeltaA1; label: 32P
[7] = test system: ARP-1 deltaA7 amino- and carboxy-terminal domains deleted; test: EMSA; conditions: no heterodimer with RXRalpha; protein in a lysate after overexpression; label: 32P
[8] = test system: RXRalpha/RARalpha heterodimer; test: EMSA; conditions: at least 50-fold excess oligo A needed to compete; protein in an extract; protein details: yeast RXRalpha mixed with CMT cell RARalpha; label: 32P
[9] = test system: ARP-1 deltaA1 amino-terminal domain deleted; test: EMSA; conditions: protein in a lysate after overexpression; label: 32P
[10] = test system: ARP-1 deltaA6 carboxy-terminal domain deleted; test: EMSA; conditions: no heterodimer with RXRalpha; protein in a lysate after overexpression; label: 32P
RXRalpha [11] = target: RXRalpha (UniProt P19793); test: EMSA; conditions: protein in an extract, protein details: ubiquitin-fusion expression in yeast (YEpRXRalpha), label: 32P
ARP-1 = target: T1, ARP-1 (UniProt P24468); test: EMSA; conditions: with control yeast extract; protein in a lysate after overexpression; protein details: pMT2-ARP-1, CMT cells; label: 32P
T1 sequence (looked up, limits assumed): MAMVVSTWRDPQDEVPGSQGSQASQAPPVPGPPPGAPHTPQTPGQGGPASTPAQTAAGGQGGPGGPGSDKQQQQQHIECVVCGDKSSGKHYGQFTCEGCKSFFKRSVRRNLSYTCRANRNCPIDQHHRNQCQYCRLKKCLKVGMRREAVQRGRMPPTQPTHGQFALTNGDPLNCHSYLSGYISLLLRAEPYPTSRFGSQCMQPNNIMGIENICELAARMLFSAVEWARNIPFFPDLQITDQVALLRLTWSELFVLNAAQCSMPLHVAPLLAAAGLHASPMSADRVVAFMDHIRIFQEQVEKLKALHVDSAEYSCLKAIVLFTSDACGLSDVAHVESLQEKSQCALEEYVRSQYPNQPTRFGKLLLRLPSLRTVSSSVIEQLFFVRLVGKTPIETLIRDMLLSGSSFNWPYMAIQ

RARalpha = target: T2, RARalpha (UniProt P10276); test: EMSA; conditions: with control yeast extract; complex not formed; protein in a lysate after overexpression; protein details: pMT2-RARalpha, CMT cells; label: 32P
T2 sequence (looked up, limits assumed): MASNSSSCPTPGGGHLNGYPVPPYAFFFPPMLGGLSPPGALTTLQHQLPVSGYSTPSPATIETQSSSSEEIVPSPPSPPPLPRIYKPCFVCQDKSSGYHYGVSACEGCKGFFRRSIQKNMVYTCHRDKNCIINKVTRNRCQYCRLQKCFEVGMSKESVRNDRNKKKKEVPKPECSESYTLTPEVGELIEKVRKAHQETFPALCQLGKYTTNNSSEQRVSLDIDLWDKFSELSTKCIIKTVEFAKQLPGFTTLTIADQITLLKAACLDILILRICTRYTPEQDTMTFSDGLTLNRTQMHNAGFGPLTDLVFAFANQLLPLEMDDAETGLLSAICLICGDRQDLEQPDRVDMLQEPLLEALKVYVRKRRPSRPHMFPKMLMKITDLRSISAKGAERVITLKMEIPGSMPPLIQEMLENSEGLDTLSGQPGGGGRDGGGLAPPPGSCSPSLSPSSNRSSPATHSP

[12] = responsiveness abolished, variant of site A5', only the site is given
[13] = mostly endogenous RA receptors, variant of site A5', only the site is given

With “ACTGAACCCGGGACCCCTGCCCT (double strand) [oligo Amut]” the “activity on this sequence” value (RXRalpha [1]; RA, variant of apoAI site A (oligo A)) was “not active”, the binding result [2] was “no binding” and the binding result [3] was “no binding”. “ACTGAACCCGGGACCCCTGCCCT (double strand) [oligo Amut]”: no binding [4]; no binding (RXRalpha [5]).

For “ACTGAACCCTTGAACCCTG (double strand) [M7]”, the “activity on this sequence” value (RXRalpha [1]; responds poorly, variant of site A5', only the site is given) was “less active”.

“ACTGAACCCTTGACCCCTGCCCT (double strand) [apoAI site A (oligo A)]”: binds [6]; binds [7]; binds [8]. “ACTGAACCCTTGACCCCTGCCCT (double strand) [apoAI site A (oligo A)]”: binds [9]; binds [10]; binds (RXRalpha [11]; homodimer with 5e-5 M 9-cis-RA, less efficient than heterodimers). “ACTGAACCCTTGACCCCTGCCCT (double strand) [apoAI site A (oligo A)]”: no binding (RXRalpha [11]; no 9-cis-RA, no partner); binds (ARP-1); no binding (RARalpha).

ACTGAACTGAACCCTG (double strand) [M8] was tested, and the “activity on this sequence” value (RXRalpha [1]; [12]) was “not active”.

For “ACTGAACTTTTGACCCCTG (double strand) [M3]”, the activity on this sequence (RXRalpha [1]; [13]) was 3 fold.

ACTGACCTGACCCCTG (double strand) [M5] was tested, and the “activity on this sequence” value (RXRalpha [1]; [12]) was “not active”.

“ACTGACCTTTTGACCCCTG (double strand) [M6]” gave an activity on this sequence (RXRalpha [1]; [13]) of 3.1 fold.

For “CTTGACCCCTGCCCTGCAG (double strand) [site A3']”, the “activity on this sequence” value (RXRalpha [1]; not efficiently transactivated with RA, variant of apoAI site A (oligo A)) was “not active”.
